Reference: paper PMC9917560, “Design, Synthesis and Antimicrobial Evaluation of New N-(1-Hydroxy-1,3-dihydrobenzo[c][1,2]oxaborol-6-yl)(hetero)aryl-2-carboxamides as Potential Inhibitors of Mycobacterial Leucyl-tRNA Synthetase” (International Journal of Molecular Sciences, 2023)

test system: HepG2 cell line; assay: Cytotoxicity screening, CellTiter 96 assay; conditions: SI = IC50 (µM)/MICMtbH37Rv (µM)

| SMILES | SI |
| --- | --- |
| O=C(Nc1ccc2c(c1)B(O)OC2)c1cnccn1 [Compound 1, N-(1-hydroxy-1,3-dihydrobenzo[c][1,2]oxaborol-6-yl)pyrazine-2-carboxamide] | >20.40 |
| Cc1cnc(C(=O)Nc2ccc3c(c2)B(O)OC3)cn1 [Compound 2, N-(1-hydroxy-1,3-dihydrobenzo[c][1,2]oxaborol-6-yl)-5-methylpyrazine-2-carboxamide] | >10.76 |
| O=C(Nc1ccc2c(c1)B(O)OC2)c1ccccn1 [Compound 10, N-(1-hydroxy-1,3-dihydrobenzo[c][1,2]oxaborol-6-yl)picolinamide] | >20.33 |
| O=C(Nc1ccc2c(c1)B(O)OC2)c1ccc(C(F)(F)F)cn1 [Compound 11, N-(1-hydroxy-1,3-dihydrobenzo[c][1,2]oxaborol-6-yl)-5-(trifluoromethyl)picolinamide] | >10.29 |
| O=C(Nc1ccc2c(c1)B(O)OC2)c1ccc(Cl)cc1 [Compound 14, 4-chloro-N-(1-hydroxy-1,3-dihydrobenzo[c][1,2]oxaborol-6-yl)benzamide] | >23.00 |
